Test results: publication PMC12681845

Chains of the proteins cited; added tags and fusions are not shown.
UniProt Q8N6T7: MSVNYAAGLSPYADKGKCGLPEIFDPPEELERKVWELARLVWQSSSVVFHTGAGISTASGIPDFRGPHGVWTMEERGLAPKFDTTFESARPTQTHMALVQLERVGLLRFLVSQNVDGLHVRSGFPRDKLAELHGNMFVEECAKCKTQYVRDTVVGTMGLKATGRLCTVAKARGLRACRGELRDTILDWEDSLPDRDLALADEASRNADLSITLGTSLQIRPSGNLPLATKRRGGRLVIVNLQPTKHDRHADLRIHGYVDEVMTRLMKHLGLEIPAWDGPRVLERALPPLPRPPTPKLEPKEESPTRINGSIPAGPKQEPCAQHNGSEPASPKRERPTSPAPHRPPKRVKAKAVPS

Target: NAD-dependent protein deacylase sirtuin-6 (human (endogenous in HCT116)) (UniProt Q8N6T7)
Test: affinity purification with mass spectrometry; Co-IP of SIRT6; eluates digested in-gel with trypsin, LC-MS/MS (Novogene); cell line not stated

Binder | binding
Hepatocyte nuclear factor 3-alpha (protein, UniProt P55317 1-472) MLGTVKMEGHETSDWNSYYADTQEAYSSVPVSNMNSGLGSMNSMNTYMTMNTMTTSGNMTPASFNMSYANPGLGAGLSPGAVAGMPGGSAGAMNSMTAAGVTAMGTALSPSGMGAMGAQQAASMNGLGPYAAAMNPCMSPMAYAPSNLGRSRAGGGGDAKTFKRSYPHAKPPYSYISLITMAIQQAPSKMLTLSEIYQWIMDLFPYYRQNQQRWQNSIRHSLSFNDCFVKVARSPDKPGKGSYWTLHPDSGNMFENGCYLRRQKRFKCEKQPGAGGGGGSGSGGSGAKGGPESRKDPSGASNPSADSPLHRGVHGKTGQLEGAPAPGPAASPQTLDHSGATATGGASELKTPASSTAPPISSGPGALASVPASHPAHGLAPHESQLHLKGDPHYSFNHPFSINNLMSSSEQQHKLDFKAYEQALQYSPYGSTLPASLPLGSASVTTRSPIEPSALEPAYYQGVYSRPVLNTS | binds
Transcription factor A, mitochondrial (protein, UniProt Q00059 43-246) SSVLASCPKKPVSSYLRFSKEQLPIFKAQNPDAKTTELIRRIAQRWRELPDSKKKIYQDAYRAEWQVYKEEISRFKEQLTPSQIMSLEKEIMDKHLKRKAMTKKKELTLLGKPKRPRSAYNVYVAERFQEAKGDSPQEKLKTVKENWKNLSDSEKELYIQHAKEDETRYHNEMKSWEEQMIEVGRKDLLRRTIKKQRKYGAEEC | binds

These are yes or no findings as the source states them, for the method shown. Binding seen in cells or lysates may run through a third protein. Here binding means that the protein was enriched with, or labelled near, the bait; the list need not be complete.
